The target of test [1] is T1, GST-PRD^trunc2 (mouse dynamin-1 PRD aa747-780 fused to GST) (mouse) (UniProt P39053).
T1 sequence: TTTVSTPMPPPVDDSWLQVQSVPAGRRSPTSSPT
The experiment in a line: pull-down; GST-PRD baits on GST SpinTrap resin, purified pacsin-1 prey 2 h at 4°C; 25 mM Tris-Cl pH 7.5, 100 mM NaCl; eluted with 10 mM glutathione; SDS-PAGE and Coomassie staining; both purified.

By UniProt entry, the sequences of proteins in these tests, tags left out. Where a name states a change or a piece, a line headed by the entry shows the natural chain unless it says otherwise.
UniProt Q9BY11: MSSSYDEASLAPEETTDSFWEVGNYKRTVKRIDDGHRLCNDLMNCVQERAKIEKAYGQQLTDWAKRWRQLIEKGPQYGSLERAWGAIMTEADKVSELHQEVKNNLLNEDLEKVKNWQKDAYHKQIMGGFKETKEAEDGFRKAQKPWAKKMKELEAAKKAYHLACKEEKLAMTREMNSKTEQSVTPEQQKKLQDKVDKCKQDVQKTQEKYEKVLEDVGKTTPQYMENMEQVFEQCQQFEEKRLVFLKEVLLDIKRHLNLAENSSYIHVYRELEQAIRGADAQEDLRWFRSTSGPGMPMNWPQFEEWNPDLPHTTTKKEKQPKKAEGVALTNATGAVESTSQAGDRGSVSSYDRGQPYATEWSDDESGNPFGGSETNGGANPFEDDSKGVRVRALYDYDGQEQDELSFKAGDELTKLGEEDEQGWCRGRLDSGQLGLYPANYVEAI

Test [2] deals with T2, Mouse dynamin-1 proline-rich domain (residues 747-842) fused to GST (mouse) (UniProt P39053).
T2 sequence: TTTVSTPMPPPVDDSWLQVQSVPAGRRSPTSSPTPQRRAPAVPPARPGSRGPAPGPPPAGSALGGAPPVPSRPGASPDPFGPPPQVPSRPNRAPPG
The test is described as follows: SEC; pacsin-1 (40 µM) and GST-PRD (80 µM) incubated for 15 min, then size-exclusion chromatography; fractions analysed by SDS-PAGE and Coomassie staining; both purified. In general terms: Size exclusion chromatography separates by hydrodynamic size, large species first.

Results are given in words; binding and its absence hold for the method and conditions named. Sequences can lack the tags named with a protein.

“Human full-length pacsin-1 (from UniProt Q9BY11 1-444)”: in test [1], the binding entry is “no binding”. For “Human pacsin-1 with the single-point mutation P437L in the SH3 domain (from UniProt Q9BY11 1-444)”, in test [2], the binding result is reported as “no binding”.

For the origin of these results see article PMC3517540, “Versatile Membrane Deformation Potential of Activated Pacsin” (PLoS ONE, 2012).
